For the test, the target named is T1, symplekin (mouse (endogenous in mouse ESCs)) (UniProt Q80X82).
T1 sequence: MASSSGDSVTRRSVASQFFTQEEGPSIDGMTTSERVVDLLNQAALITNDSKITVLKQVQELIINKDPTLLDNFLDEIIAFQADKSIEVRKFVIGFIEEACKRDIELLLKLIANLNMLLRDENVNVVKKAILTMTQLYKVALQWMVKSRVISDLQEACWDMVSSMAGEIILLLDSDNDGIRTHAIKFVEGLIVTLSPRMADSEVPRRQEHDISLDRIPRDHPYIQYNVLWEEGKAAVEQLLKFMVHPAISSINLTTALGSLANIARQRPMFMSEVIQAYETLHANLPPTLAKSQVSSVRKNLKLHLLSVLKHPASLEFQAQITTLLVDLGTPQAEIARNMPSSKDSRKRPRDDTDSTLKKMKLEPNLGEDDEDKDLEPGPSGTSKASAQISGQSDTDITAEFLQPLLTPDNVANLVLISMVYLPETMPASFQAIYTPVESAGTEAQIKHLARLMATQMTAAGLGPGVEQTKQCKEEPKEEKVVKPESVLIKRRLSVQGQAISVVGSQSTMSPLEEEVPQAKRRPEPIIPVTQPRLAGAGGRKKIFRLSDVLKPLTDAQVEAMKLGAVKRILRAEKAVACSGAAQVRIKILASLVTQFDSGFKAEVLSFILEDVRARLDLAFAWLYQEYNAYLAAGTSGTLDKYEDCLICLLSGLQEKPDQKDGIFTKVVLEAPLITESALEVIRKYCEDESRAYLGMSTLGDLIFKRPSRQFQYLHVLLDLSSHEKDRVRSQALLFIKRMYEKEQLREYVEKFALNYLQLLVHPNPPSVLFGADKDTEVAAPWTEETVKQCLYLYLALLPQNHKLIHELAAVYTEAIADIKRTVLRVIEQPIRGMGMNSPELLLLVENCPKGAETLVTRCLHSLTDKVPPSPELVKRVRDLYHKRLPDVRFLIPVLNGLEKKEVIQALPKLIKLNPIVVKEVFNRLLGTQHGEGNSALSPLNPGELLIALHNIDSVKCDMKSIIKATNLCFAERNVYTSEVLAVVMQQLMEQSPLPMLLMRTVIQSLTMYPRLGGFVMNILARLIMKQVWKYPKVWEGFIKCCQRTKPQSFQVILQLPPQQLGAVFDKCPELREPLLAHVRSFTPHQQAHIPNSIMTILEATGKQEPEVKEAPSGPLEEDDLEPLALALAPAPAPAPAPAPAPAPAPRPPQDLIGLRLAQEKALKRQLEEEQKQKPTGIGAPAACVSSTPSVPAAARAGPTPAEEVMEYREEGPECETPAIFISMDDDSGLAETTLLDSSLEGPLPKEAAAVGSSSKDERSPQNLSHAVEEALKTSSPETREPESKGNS
The test can be described thus: co-IP; immunoprecipitation with an anti-symplekin antibody from protein lysates of wild type and Cstf2^E6 mouse ESCs; western blot for CstF-64 and τCstF-64.

No constants are given. Whether binding was seen depends on the method and setting. Binding seen in cells or lysates may run through a third protein. Some binding calls cover weakened binding; strength is not graded here.

B1: CstF-64 (protein, UniProt Q8BIQ5 1-580)
chain: MAGLPVRDPAVDRSLRSVFVGNIPYEATEEQLKDIFSEVGPVVSFRLVYDRETGKPKGYGFCEYQDQETALSAMRNLNGREFSGRALRVDNAASEKNKEELKSLGTGAPVIESPYGESISPEDAPESISKAVASLPPEQMFELMKQMKLCVQNSPQEARNMLLQNPQLAYALLQAQVVMRIVDPEIALKILHRQTNIPTLISGNPQPVHVAGPGSGPNVSMNQQNPQAPQAQSLGGMHVNGAPPMMQASMPGGVPAPVQMAAAVGGPGPGSLAPAGVMQAQVGMQGAGPVPMERGQVPMQDPRAAMQRGALPTNVPTPRGLLGDAPNDPRGGTLMTVTGDVEPRAYLGPPPPPHQGPPMHHVPGHEGRGPPPHDMRGGPLAEPRPLMAEPRGPMLDQRGPPLDARGGRDPRGLDARGMEARAMEARGLDARGLEARAMEARAMEARAMEARAMEARAMEARAMEARGMDTRGPVPGPRGPMPSGIQGPNPMNMGAVVPQGSRQVPVMQGAGMQGASMQGGSQPGGFSPGQSQVTPQDHEKAALIMQVLQLTADQIAMLPPEQRQSILILKEQIQKSTGAP
Regarding B1, the binding result is on record as “binds”.

B2: τCstF-64 (protein, UniProt Q8C7E9 1-632)
chain: MSSLAVRDPAMDRSLRSVFVGNIPYEATEEQLKDIFSEVGSVVSFRLVYDRETGKPKGYGFCEYQDQETALSAMRNLNGREFSGRALRVDNAASEKNKEELKSLGPAAPIIDSPYGDPIDPEDAPESITRAVASLPPEQMFELMKQMKLCVQNSHQEARNMLLQNPQLAYALLQAQVVMRIMDPEIALKILHRKIHVTPLIPGKSQPVSGPGPGGPGPSGPGGPGPGPAPGLCPGPNVMLNQQNPPAPQPQHLPRRPVKDIPPLMQTSIQGGIPAPGPIPAAVPGPGPGSLTPGGAMQPQVGMPVVGPVPLERGQMQISDPRPPMPRGPMPSGGIPPRGLLGDAPNDPRGGTLLSVTGEVEPRGYMGPPHQGPPMHHGHDNRGPASHDMRGGPLAADPRMLIGEPRGPMIDQRGLPMDGRGGRESRGMETRPMETEVLEPRGMERRMETCAMETRGMDARGLEMRGPGPSSRGPMTGGIQGPGPINMGAGGPQGPRQVPNIAGVGNPGGTMQGAGIQGGGMQGAGMQGGGMQGAGMQGGGMQGAGMQAGMQGASMQGGMQGAGMQGASKQGGGQPSSFSPGQSQVTPQDQEKAALIMQVLQLTADQIAMLPPEQRQSILILKEQIQKSTGAS
With B2, the binding entry was “binds weakly”.

The values above are taken from PMC4117776.
